PMC3470869
These are yes or no findings as the source states them, for the method shown. Binding seen in cells or lysates may run through a third protein. Some entries that bind do so weakly or less than the wild type.

The chains behind the UniProt entries cited, without tags or fusion partners.
UniProt P32121: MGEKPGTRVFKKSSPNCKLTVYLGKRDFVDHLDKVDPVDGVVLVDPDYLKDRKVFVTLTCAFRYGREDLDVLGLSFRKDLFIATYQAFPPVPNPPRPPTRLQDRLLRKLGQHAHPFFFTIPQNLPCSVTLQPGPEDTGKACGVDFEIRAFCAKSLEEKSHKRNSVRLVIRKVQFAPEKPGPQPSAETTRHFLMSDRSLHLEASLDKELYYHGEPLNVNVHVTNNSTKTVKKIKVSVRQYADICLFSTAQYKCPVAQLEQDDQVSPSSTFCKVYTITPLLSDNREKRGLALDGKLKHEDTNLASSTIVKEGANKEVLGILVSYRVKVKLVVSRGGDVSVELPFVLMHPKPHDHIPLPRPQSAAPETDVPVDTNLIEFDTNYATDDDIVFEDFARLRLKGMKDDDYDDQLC
UniProt Q9HAU4: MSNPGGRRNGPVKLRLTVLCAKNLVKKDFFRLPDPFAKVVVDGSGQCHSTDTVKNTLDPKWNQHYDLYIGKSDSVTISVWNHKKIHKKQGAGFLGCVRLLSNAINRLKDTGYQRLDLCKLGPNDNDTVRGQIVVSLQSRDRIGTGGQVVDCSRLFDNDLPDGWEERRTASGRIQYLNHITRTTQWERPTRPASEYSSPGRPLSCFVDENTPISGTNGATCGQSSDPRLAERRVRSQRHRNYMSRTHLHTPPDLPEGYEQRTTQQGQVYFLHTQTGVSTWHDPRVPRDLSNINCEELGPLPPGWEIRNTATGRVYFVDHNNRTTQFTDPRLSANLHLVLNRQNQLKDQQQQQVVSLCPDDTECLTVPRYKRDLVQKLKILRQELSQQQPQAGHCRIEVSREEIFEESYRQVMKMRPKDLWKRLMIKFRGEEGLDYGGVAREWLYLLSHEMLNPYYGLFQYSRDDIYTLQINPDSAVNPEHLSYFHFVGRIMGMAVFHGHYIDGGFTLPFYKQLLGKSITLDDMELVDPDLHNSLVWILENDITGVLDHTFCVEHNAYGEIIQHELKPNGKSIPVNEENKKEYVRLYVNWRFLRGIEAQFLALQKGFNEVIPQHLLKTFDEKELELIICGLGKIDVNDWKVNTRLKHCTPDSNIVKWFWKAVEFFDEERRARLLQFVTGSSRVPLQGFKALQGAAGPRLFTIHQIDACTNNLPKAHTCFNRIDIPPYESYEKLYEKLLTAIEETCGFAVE

Target: HA-Arrestin3 (UniProt P32121)
Test: co-IP; cells transiently transfected with myc-Smurf2 and HA-Arrestin3 (or pCDNA 3.0), lysed in IP buffer with protease inhibitors; legend: immunoprecipitated with HA antibody, immunoblotted for myc (methods: anti-myc 9E10 overnight, protein A/G beads, probed with anti-HA)

- binding: binds
Substance: myc-Smurf2 (from UniProt Q9HAU4 1-748) (enzyme)
